Experimental data reported in patent publication US20260274887A1, “SALT FORM AND POLYCRYSTALLINE FORM OF ALLOPR[…], PREPARATION METHOD THEREFOR, AND USE THEREOF” (priority 2023, published 2026).
At least one compound was matched to its structure with a doubt left.

Test: Hygroscopic weight gain experiment (Chinese Pharmacopoeia 2020 hygroscopicity guideline)
Type: physicochemical
Settings: 25° C.±1° C. and 80%±2% RH
Procedure: Table 1 below is the definition and range of hygroscopicity for a drug after equilibration at 25° C.±1° C. and 80%±2% RH in Guidelines for Hygroscopicity Trials for Pharmaceuticals (Chinese Pharmacopoeia, 2020 Edition, Volume IV, page 485).
The strong hygroscopicity of a drug will seriously affect the flowability of the drug and even affect the stability of the drug. Therefore, according to the present application, a hygroscopic weight gain experiment was conducted on different salt forms of compound 1 as per the method described in Guidelines for Hygroscopicity Trials for Pharmaceuticals (Chinese Pharmacopoeia, 2020 Edition, Volume IV).

Structure (SMILES)	Description of hygroscopicity
O=C(O)CC(O)C(=O)O.[2H]C(C)(C)C(N)C(=O)OC1CCC2(C)C(CCC3C2CCC2(C)C(C(C)=O)CCC32)C1.[2H]C(C)(C)C(N)C(=O)OC1CCC2(C)C(CCC3C2CCC2(C)C(C(C)=O)CCC32)C1 [L-Malate]	Hygroscopic (Hygroscopic weight gain being less than 15% but not less than 2%)
O=P(O)(O)O.[2H]C(C)(C)C(N)C(=O)OC1CCC2(C)C(CCC3C2CCC2(C)C(C(C)=O)CCC32)C1.[2H]C(C)(C)C(N)C(=O)OC1CCC2(C)C(CCC3C2CCC2(C)C(C(C)=O)CCC32)C1 (centres unmarked) [Phosphate]	Hygroscopic (Hygroscopic weight gain being less than 15% but not less than 2%)
